Measured values taken from the supplement of paper PMC8728848.
Some of the results follow.

Key:
Experiment in all cases: glycan array binding signal (z-score within array); higher = stronger binding
Conditions in all cases: glycan notation: IUPAC condensed, linker removed
[1] = target: Neu5Ac(a2-3)[GalNAc(b1-4)]Gal(b1-4)Glc
Method in brief: (§1)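 Glycan array binding is given as a within-array Z-score, which can be read as non-binding when negative. The arrays, 3228 of them, came from the Consortium for Functional Glycomics database and were retained only where the protein sequence was available. Z-scores were averaged across arrays of the same protein sequence at different concentrations or buffers and across linkers.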

[2] = target: Neu5Ac(a2-3)[GalNAc(b1-4)]Gal(b1-4)GlcNAc
Method in brief: as §1

[3] = target: Neu5Ac(a2-3)[GalNAc(b1-4)]Gal(b1-4)GlcNAc(b1-3)GalNAc
Method in brief: as §1

[4] = target: Neu5Ac(a2-3)[Neu5Ac(a2-6)]GalNAc
Method in brief: as §1

Neu5Ac(a2-6)Gal = target: Neu5Ac(a2-6)Gal
Method in brief: as §1

[5] = target: Neu5Ac(a2-6)Gal(b1-3)GlcNAc(b1-3)[Gal(b1-4)GlcNAc(b1-6)]Gal(b1-4)Glc
Method in brief: as §1

Neu5Ac(a2-6)Gal(b1-4)Glc = target: Neu5Ac(a2-6)Gal(b1-4)Glc
Method in brief: as §1

[6] = target: Neu5Ac(a2-6)Gal(b1-4)GlcNAc
Method in brief: as §1

[7] = target: Neu5Ac(a2-6)Gal(b1-4)GlcNAc(b1-2)Man(a1-3)Man(b1-4)GlcNAc(b1-4)GlcNAc
Method in brief: as §1

[8] = target: Neu5Ac(a2-6)Gal(b1-4)GlcNAc(b1-2)Man(a1-3)[Gal(b1-4)GlcNAc(b1-2)Man(a1-6)]Man(b1-4)GlcNAc(b1-4)GlcNAc
Method in brief: as §1

[9] = target: Neu5Ac(a2-6)Gal(b1-4)GlcNAc(b1-2)Man(a1-3)[GlcNAc(b1-2)Man(a1-6)]Man(b1-4)GlcNAc(b1-4)GlcNAc
Method in brief: as §1

[10] = target: Neu5Ac(a2-6)Gal(b1-4)GlcNAc(b1-2)Man(a1-3)[GlcNAc(b1-2)Man(b1-4)GlcNAc(b1-2)Man(a1-6)]Man(b1-4)GlcNAc(b1-4)GlcNAc
Method in brief: as §1

[11] = target: Neu5Ac(a2-6)Gal(b1-4)GlcNAc(b1-2)Man(a1-3)[Man(a1-6)]Man(b1-4)GlcNAc(b1-4)GlcNAc
Method in brief: as §1

[12] = target: Neu5Ac(a2-6)Gal(b1-4)GlcNAc(b1-2)Man(a1-3)[Neu5Ac(a2-6)Gal(b1-4)GlcNAc(b1-2)Man(a1-6)]Man(b1-4)GlcNAc(b1-4)GlcNAc
Method in brief: as §1

[13] = target: Neu5Ac(a2-6)Gal(b1-4)GlcNAc(b1-2)Man(a1-6)Man(b1-4)GlcNAc(b1-4)GlcNAc
Method in brief: as §1

[14] = target: Neu5Ac(a2-6)Gal(b1-4)GlcNAc(b1-2)Man(a1-6)[Gal(b1-4)GlcNAc(b1-2)Man(a1-3)]Man(b1-4)GlcNAc(b1-4)GlcNAc
Method in brief: as §1

[15] = target: Neu5Ac(a2-6)Gal(b1-4)GlcNAc(b1-2)Man(a1-6)[GlcNAc(b1-2)Man(a1-3)]Man(b1-4)GlcNAc(b1-4)GlcNAc
Method in brief: as §1

[16] = target: Neu5Ac(a2-6)Gal(b1-4)GlcNAc(b1-2)Man(a1-6)[Man(a1-3)]Man(b1-4)GlcNAc(b1-4)GlcNAc
Method in brief: as §1

[17] = target: Neu5Ac(a2-6)Gal(b1-4)GlcNAc(b1-3)Gal(b1-3)GlcNAc
Method in brief: as §1

[18] = target: Neu5Ac(a2-6)Gal(b1-4)GlcNAc(b1-3)Gal(b1-4)GlcNAc
Method in brief: as §1

[19] = target: Neu5Ac(a2-6)Gal(b1-4)GlcNAc(b1-3)Gal(b1-4)GlcNAc(b1-3)Gal(b1-4)GlcNAc
Method in brief: as §1

[20] = target: Neu5Ac(a2-6)Gal(b1-4)GlcNAc(b1-3)Gal(b1-4)[Fuc(a1-3)]GlcNAc(b1-3)Gal(b1-4)[Fuc(a1-3)]GlcNAc
Method in brief: as §1

[21] = target: Neu5Ac(a2-6)Gal(b1-4)GlcNAc(b1-3)GalNAc
Method in brief: as §1

[22] = target: Neu5Ac(a2-6)Gal(b1-4)GlcNAc6S
Method in brief: as §1

Neu5Ac(a2-6)GalNAc = target: Neu5Ac(a2-6)GalNAc
Method in brief: as §1

[23] = target: Neu5Ac(a2-6)GalNAc(b1-4)GlcNAc
Method in brief: as §1

[24] = target: Neu5Ac(a2-6)GlcNAc(b1-4)GlcNAc
Method in brief: as §1

[25] = target: Neu5Ac(a2-6)GlcNAc(b1-4)GlcNAc(b1-4)GlcNAc
Method in brief: as §1

Neu5Ac(a2-8)Neu5Ac = target: Neu5Ac(a2-8)Neu5Ac
Method in brief: as §1

[26] = target: Neu5Ac(a2-8)Neu5Ac(a2-3)Gal(b1-3)GalNAc(b1-4)[Neu5Ac(a2-8)Neu5Ac(a2-3)]Gal(b1-4)Glc
Method in brief: as §1

[27] = target: Neu5Ac(a2-8)Neu5Ac(a2-3)Gal(b1-4)Glc
Method in brief: as §1

[28] = target: Neu5Ac(a2-8)Neu5Ac(a2-3)[Gal(b1-3)GalNAc(b1-4)]Gal(b1-4)Glc
Method in brief: as §1

[29] = target: Neu5Ac(a2-8)Neu5Ac(a2-3)[GalNAc(b1-4)]Gal(b1-4)Glc
Method in brief: as §1

[30] = target: Neu5Ac(a2-8)Neu5Ac(a2-8)Neu5Ac
Method in brief: as §1

[31] = target: Neu5Ac(a2-8)Neu5Ac(a2-8)Neu5Ac(a2-3)Gal(b1-4)Glc
Method in brief: as §1

[32] = target: Neu5Ac(a2-8)Neu5Ac(a2-8)Neu5Ac(a2-3)[GalNAc(b1-4)]Gal(b1-4)Glc
Method in brief: as §1

[33] = target: Neu5Ac(a2-8)Neu5Ac(a2-8)Neu5Ac(a2-8)Neu5Ac(a2-3)[GalNAc(b1-4)]Gal(b1-4)Glc
Method in brief: as §1

[34] = target: Neu5Ac(b2-6)Gal(b1-4)GlcNAc
Method in brief: as §1

Neu5Ac(b2-6)GalNAc = target: Neu5Ac(b2-6)GalNAc
Method in brief: as §1

[35] = target: Neu5Ac9Ac(a2-3)Gal(b1-3)GlcNAc
Method in brief: as §1

[36] = target: Neu5Ac9Ac(a2-3)Gal(b1-4)GlcNAc
Method in brief: as §1

[37] = target: Neu5Ac9Ac(a2-6)Gal(b1-4)GlcNAc
Method in brief: as §1

[38] = target: Neu5Gc(a2-3)Gal(b1-3)GlcNAc
Method in brief: as §1

[39] = target: Neu5Gc(a2-3)Gal(b1-3)[Fuc(a1-4)]GlcNAc
Method in brief: as §1

Neu5Gc(a2-3)Gal(b1-4)Glc = target: Neu5Gc(a2-3)Gal(b1-4)Glc
Method in brief: as §1

[40] = target: Neu5Gc(a2-3)Gal(b1-4)GlcNAc
Method in brief: as §1

[41] = target: Neu5Gc(a2-3)Gal(b1-4)[Fuc(a1-3)]GlcNAc
Method in brief: as §1

[42] = target: Neu5Gc(a2-6)Gal(b1-4)GlcNAc
Method in brief: as §1

Neu5Gc(a2-6)GalNAc = target: Neu5Gc(a2-6)GalNAc
Method in brief: as §1

[43] = target: Neu5Gc(b2-6)Gal(b1-4)GlcNAc
Method in brief: as §1

B1: RetS (Pseudomonas aeruginosa), Q9HUV7 (protein)
chain: MVRLRIAIGLLVSFLLLLLGPMSPAVADDAGVSSVPLQTTATTPSANQNWRLLRDESAQLRIADVLQRKEQFRPLAKRSFIFPASPQAVWLQVQLPAQKVPSWLWIFAPRVQYLDYYLVQDGQLVRDQHTGESRPFQERPLPSRSYLFSLPVDGKPMTLYVRMTSNHPLMAWFDQIDEAGLVGLEKPAYAFGMLLGGMLLLLMYNLIRFAYSRSASSLWLAAVHAALAVCAAANLGLVAFWLPGLKFNQSLTADLGALGAAVSLLWFACSFFRGTAESRLNRLLQGEALLILAVGAIIAFTQQLWFSWLIYLLVILSSLSVPLIAAWHWYRGYQPARLIVAGMIVFNAGFMVFLPVLFGTKQLDPGWLVLGVFSFATLAGLVLSVSLTERQRLIQQLNLQQRTSEAAHTAELQTKAEFLAKISHEIRTPMNGVLGMTELLLGTPLSAKQRDYVQTIHSAGNELLTLINEILDISKLESGQIELDEVQFDLNALIEDCLDIFRVKAEQQRIELISFTQPQVPRVIGGDPTRLRQVVLSLLDNAFKQTEEGEILLVVALDDQGETPRLRIAVQDSGHPFDAKEREALLTAELHSGDFLSASKLGSHLGLIIARQLVRLMGGEFGIQSGSSQGTTLSLTLPLDPQQLENPTADLDGPLQGARLLVVDDNETCRKVLVQQCSGWGLNVSAVSSGKEALAQLRTKAHLREYFDVVLLDQDMPGMTGMQLAAKIKEDPNLNHDILLIMLTGISNAPSKIIARNAGIKRILAKPVAGYTLKATLADELAQRGVSGVTNYLQPAKEAQAPSLPSDFRILVAEDNSISTKVIRGMLNKLNLQPDTASNGQEALSAMKATQYDLVLMDCEMPVLDGFSATEQLRAWEAHEQRPHTPVVALTAHILSEHKERARLVGMDGHMAKPVELSQLRELIAYWVGERDRRRQGDALPS
In the case of B1, the “glycan array binding signal (z-score)” value [1] is reported as 0.059, the “glycan array binding signal (z-score)” value [2] is reported as 0.328 and the “glycan array binding signal (z-score)” value [3] is reported as -0.812. For the same binder, the “glycan array binding signal (z-score)” value [4] was 0.446, the “glycan array binding signal (z-score)” value (Neu5Ac(a2-6)Gal) was -0.536 and the “glycan array binding signal (z-score)” value [5] was 0.956. For the same binder, the “glycan array binding signal (z-score)” value (Neu5Ac(a2-6)Gal(b1-4)Glc) was 0.109, the “glycan array binding signal (z-score)” value [6] was -0.56 and the “glycan array binding signal (z-score)” value [7] was -0.075. The “glycan array binding signal (z-score)” value [8] was 0.76, the “glycan array binding signal (z-score)” value [9] was -0.625 and the “glycan array binding signal (z-score)” value [10] was -0.37. For the same binder, the “glycan array binding signal (z-score)” value [11] was -0.125, the “glycan array binding signal (z-score)” value [12] was 1.4 and the “glycan array binding signal (z-score)” value [13] was 0.077. The “glycan array binding signal (z-score)” value [14] was 0.407, the “glycan array binding signal (z-score)” value [15] was 1.56 and the “glycan array binding signal (z-score)” value [16] was 0.82. For the same binder, the “glycan array binding signal (z-score)” value [17] was -1.11, the “glycan array binding signal (z-score)” value [18] was 0.395 and the “glycan array binding signal (z-score)” value [19] was 0.156. For the same binder, the “glycan array binding signal (z-score)” value [20] was 0.616, the “glycan array binding signal (z-score)” value [21] was -0.906 and the “glycan array binding signal (z-score)” value [22] was 0.369. For the same binder, the “glycan array binding signal (z-score)” value (Neu5Ac(a2-6)GalNAc) was -1.85, the “glycan array binding signal (z-score)” value [23] was -0.76 and the “glycan array binding signal (z-score)” value [24] was -0.148. For the same binder, the “glycan array binding signal (z-score)” value [25] was -0.596, the “glycan array binding signal (z-score)” value (Neu5Ac(a2-8)Neu5Ac) was 0.075 and the “glycan array binding signal (z-score)” value [26] was -0.48. The “glycan array binding signal (z-score)” value [27] was -1.21, the “glycan array binding signal (z-score)” value [28] was 0.044 and the “glycan array binding signal (z-score)” value [29] was 0.67. The “glycan array binding signal (z-score)” value [30] was -0.444, the “glycan array binding signal (z-score)” value [31] was 0.263 and the “glycan array binding signal (z-score)” value [32] was 0.181. The “glycan array binding signal (z-score)” value [33] was 1.03, the “glycan array binding signal (z-score)” value [34] was 0.542 and the “glycan array binding signal (z-score)” value (Neu5Ac(b2-6)GalNAc) was 0.789. For the same binder, the “glycan array binding signal (z-score)” value [35] was -0.749, the “glycan array binding signal (z-score)” value [36] was -0.425 and the “glycan array binding signal (z-score)” value [37] was -0.605. The “glycan array binding signal (z-score)” value [38] was -1.31, the “glycan array binding signal (z-score)” value [39] was 1.34 and the “glycan array binding signal (z-score)” value (Neu5Gc(a2-3)Gal(b1-4)Glc) was 2.06. For the same binder, the “glycan array binding signal (z-score)” value [40] was -0.459, the “glycan array binding signal (z-score)” value [41] was 0.919 and the “glycan array binding signal (z-score)” value [42] was -0.427. For the same binder, the “glycan array binding signal (z-score)” value (Neu5Gc(a2-6)GalNAc) was -0.622 and the “glycan array binding signal (z-score)” value [43] was -0.212.
